The supplement of paper PMC10032668
This is one part of the list. Only hits are listed; about a third recur on repeated control peptides.

By UniProt entry, the sequences of proteins in these tests, tags left out.
CHMP2B, Q9UQN3, UniProt Q9UQN3, whole entry: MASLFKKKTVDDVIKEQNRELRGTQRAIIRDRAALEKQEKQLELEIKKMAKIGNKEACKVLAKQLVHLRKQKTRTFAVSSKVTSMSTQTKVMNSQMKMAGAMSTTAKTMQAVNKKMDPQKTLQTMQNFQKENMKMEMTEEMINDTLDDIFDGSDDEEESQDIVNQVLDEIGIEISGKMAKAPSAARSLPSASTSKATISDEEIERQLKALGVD
COA4, Q9NYJ1, UniProt Q9NYJ1, whole entry: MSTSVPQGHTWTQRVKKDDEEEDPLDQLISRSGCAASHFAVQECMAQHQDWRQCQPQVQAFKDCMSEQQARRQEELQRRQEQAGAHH
CRIPT, Q9P021, UniProt Q9P021, whole entry: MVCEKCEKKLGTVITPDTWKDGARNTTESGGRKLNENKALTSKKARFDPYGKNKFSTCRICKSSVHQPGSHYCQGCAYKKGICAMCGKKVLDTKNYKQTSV

Columns and labels:
Experiment in all cases: PRISMA enrichment of interactor (LFQ) in peptide spot vs all other peptide spots (log2 fold change); higher = stronger / more specific binding of the interactor to the peptide
ALKBH2, Q6NS38 = target: ALKBH2, Q6NS38
Method: (§1)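 PRISMA: 221 full-length sORF-encoded peptides (3-15 aa), plus SOS1/GLUT1 control peptides, were spot-synthesized on cellulose membranes in triplicate. Membranes were incubated with HEK293T lysate, and bound proteins were identified by LC-MS/MS with LFQ. Enrichment is the log2 fold change versus all other peptide spots; only significant interactors are listed (cutoff c=6, x0=2.8).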

ALYREF, Q86V81 = target: ALYREF, Q86V81
Method: as §1

BOLA3, Q53S33 = target: BOLA3, Q53S33
Method: as §1

C12orf65, Q9H3J6 = target: C12orf65, Q9H3J6
Method: as §1

C19orf53, Q9UNZ5 = target: C19orf53, Q9UNZ5
Method: as §1

C1orf131, Q8NDD1 = target: C1orf131, Q8NDD1
Method: as §1

CCDC137, Q6PK04 = target: CCDC137, Q6PK04
Method: as §1

CCDC58, Q4VC31 = target: CCDC58, Q4VC31
Method: as §1

CCDC59, Q9P031 = target: CCDC59, Q9P031
Method: as §1

CHCHD7, Q9BUK0 = target: CHCHD7, Q9BUK0
Method: as §1

CHMP2B, Q9UQN3 = target: CHMP2B, Q9UQN3
Method: as §1

CHTOP, Q9Y3Y2 = target: CHTOP, Q9Y3Y2
Method: as §1

CMC2, Q9NRP2 = target: CMC2, Q9NRP2
Method: as §1

COA4, Q9NYJ1 = target: COA4, Q9NYJ1
Method: as §1

CRIPT, Q9P021 = target: CRIPT, Q9P021
Method: as §1

CSNK1E, P49674 = target: CSNK1E, P49674
Method: as §1

CSRP2, Q16527 = target: CSRP2, Q16527
Method: as §1

CXorf56, Q9H5V9 = target: CXorf56, Q9H5V9
Method: as §1

CYCS, P99999 = target: CYCS, P99999
Method: as §1

DDX49, Q9Y6V7 = target: DDX49, Q9Y6V7
Method: as §1

DERPC, P0CG12 = target: DERPC, P0CG12
Method: as §1

EDF1, O60869 = target: EDF1, O60869
Method: as §1

FAM107B, Q9H098 = target: FAM107B, Q9H098
Method: as §1

FAM32A, Q9Y421 = target: FAM32A, Q9Y421
Method: as §1

FAM50A, Q14320 = target: FAM50A, Q14320
Method: as §1

FBL, P22087 = target: FBL, P22087
Method: as §1

FKBP2, P26885 = target: FKBP2, P26885
Method: as §1

GABARAPL2, P60520 = target: GABARAPL2, P60520
Method: as §1

HNRNPA1, P09651 = target: HNRNPA1, P09651
Method: as §1

ISCU, Q9H1K1 = target: ISCU, Q9H1K1
Method: as §1

Binder: MCVSVYADV [GPBP1]
- PRISMA enrichment of interactor (log2) (ALKBH2, Q6NS38): 5.28
- PRISMA enrichment of interactor (log2) (ALYREF, Q86V81): 5.38
- PRISMA enrichment of interactor (log2) (BOLA3, Q53S33): 5.42
- PRISMA enrichment of interactor (log2) (C12orf65, Q9H3J6): 5.08
- PRISMA enrichment of interactor (log2) (C19orf53, Q9UNZ5): 8.02
- PRISMA enrichment of interactor (log2) (C1orf131, Q8NDD1): 4.07
- PRISMA enrichment of interactor (log2) (CCDC137, Q6PK04): 7.29
- PRISMA enrichment of interactor (log2) (CCDC58, Q4VC31): 4.17
- PRISMA enrichment of interactor (log2) (CCDC59, Q9P031): 5.48
- PRISMA enrichment of interactor (log2) (CHCHD7, Q9BUK0): 4.6
- PRISMA enrichment of interactor (log2) (CHMP2B, Q9UQN3): 6.82
- PRISMA enrichment of interactor (log2) (CHTOP, Q9Y3Y2): 5.33
- PRISMA enrichment of interactor (log2) (CMC2, Q9NRP2): 4.54
- PRISMA enrichment of interactor (log2) (COA4, Q9NYJ1): 6.45
- PRISMA enrichment of interactor (log2) (CRIPT, Q9P021): 5.2
- PRISMA enrichment of interactor (log2) (CSNK1E, P49674): 5.85
- PRISMA enrichment of interactor (log2) (CSRP2, Q16527): 6.07
- PRISMA enrichment of interactor (log2) (CXorf56, Q9H5V9): 6.8
- PRISMA enrichment of interactor (log2) (CYCS, P99999): 5.4
- PRISMA enrichment of interactor (log2) (DDX49, Q9Y6V7): 5.7
- PRISMA enrichment of interactor (log2) (DERPC, P0CG12): 6.33
- PRISMA enrichment of interactor (log2) (EDF1, O60869): 6.41
- PRISMA enrichment of interactor (log2) (FAM107B, Q9H098): 4.12
- PRISMA enrichment of interactor (log2) (FAM32A, Q9Y421): 4.59
- PRISMA enrichment of interactor (log2) (FAM50A, Q14320): 7.02
- PRISMA enrichment of interactor (log2) (FBL, P22087): 5.53
- PRISMA enrichment of interactor (log2) (FKBP2, P26885): 6.62
- PRISMA enrichment of interactor (log2) (GABARAPL2, P60520): 4.76
- PRISMA enrichment of interactor (log2) (HNRNPA1, P09651): 4.45
- PRISMA enrichment of interactor (log2) (ISCU, Q9H1K1): 5.35
